From PubChem BioAssay AID488837 (National Center for Advancing Translational Sciences (NCATS), 2010)
In all, about 330,000 compounds went through this assay and about 20 (0.006%) were called active. Inconclusive means that the source gave no clear call. Such entries were picked first, then a sample of the others. Calls come from the whole dose curve; as a rule, active = well fitted inhibition curve with a large enough effect; inconclusive = small, poorly fitted or top-dose-only effect, or effect the other way; inactive = flat fitted curve, though single readings scatter. Potencies of inconclusive entries are doubtful fits and often do not repeat.

Amino acid sequences for entries named in this document (tags omitted). A change or cut given only in a name is not applied to a line headed by its entry.
UniProt O00167: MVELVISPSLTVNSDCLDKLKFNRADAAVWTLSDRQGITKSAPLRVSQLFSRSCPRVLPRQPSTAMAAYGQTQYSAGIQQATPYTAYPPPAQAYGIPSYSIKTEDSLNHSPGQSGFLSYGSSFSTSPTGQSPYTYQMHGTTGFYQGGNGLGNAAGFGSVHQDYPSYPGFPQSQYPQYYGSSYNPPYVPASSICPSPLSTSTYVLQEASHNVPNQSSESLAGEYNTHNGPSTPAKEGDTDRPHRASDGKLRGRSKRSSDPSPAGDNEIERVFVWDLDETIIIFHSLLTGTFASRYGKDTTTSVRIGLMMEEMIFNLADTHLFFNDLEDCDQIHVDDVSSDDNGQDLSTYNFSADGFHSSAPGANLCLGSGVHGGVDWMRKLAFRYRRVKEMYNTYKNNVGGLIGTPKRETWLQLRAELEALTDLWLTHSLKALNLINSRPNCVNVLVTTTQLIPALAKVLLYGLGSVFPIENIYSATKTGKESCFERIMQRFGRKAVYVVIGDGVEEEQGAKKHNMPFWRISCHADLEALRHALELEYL

Target: Protein phosphatase EYA2 (Homo sapiens) (UniProt O00167)
Assay: qHTS Assay for Inhibitors of the Phosphatase Activity of Eya2
Details: recombinant Eya2, OMFP fluorescence dephosphorylation (OMFP is methylfluorescein phosphate); series mostly up to 76.9 µM
How it was run: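 Eya2 protein (added as 0.2 uM solution) was preincubated with compound for 10 min at ambient temperature in 50 mM HEPES pH 7.5, 50 mM NaCl, 5 uM MgCl2, 0.05% BSA, 1 mM DTT. OMFP (added at 50 uM) then reacted 10 min; fluorescence read at 485/525 nm.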
Potency is the fitted concentration of half-maximal effect.

| SMILES | Potency |
| --- | --- |
| CN(C)c1ccc(NC(=O)CCN2C(=O)c3cccc([N+](=O)[O-])c3C2=O)cc1 | inconclusive: 15.8 µM [inhibitor, single point] |
| COc1ccc(NC(=O)CSc2ccc3nnc(-c4cccnc4)n3n2)cc1OC | inactive |
| CCn1ccc(C(=O)Nc2ccccc2SC)n1 | inconclusive: 178 µM [inhibitor, partial curve, poor fit] |
| CN(Cc1c(O)ccc2c1oc(=O)c1ccccc12)C1CCCCC1 | inactive |
| CN(C(=O)CC1C(=O)NCCN1Cc1ccoc1)C1CCOCC1 (stereo unspecified) | inactive |
| Cn1nnnc1Sc1ncnc2scc(-c3ccccc3Cl)c12 | inactive |
| COCC(C)NC(=O)c1ccc(-n2nc(C(F)(F)F)cc2-c2cccs2)cc1 (stereo unspecified) | inconclusive: 89.1 µM [inhibitor, single point] |
| Cc1nnc(N/N=C\c2ccc(-c3ccccc3[N+](=O)[O-])o2)n1N | inactive |
| COc1ccc(-c2nc(-c3ccccn3)no2)cc1 | inconclusive: 100 µM [inhibitor, single point] |
| C=CCOc1ccc2ccccc2c1CNCCCN1CCOCC1 | inconclusive: 89.1 µM [inhibitor, single point] |
| Cc1c(Br)c([N+](=O)[O-])nn1CC(=O)Nc1ccc(CC#N)cc1 | inconclusive: 100 µM [inhibitor, single point] |
| Cn1nc(C(C)(C)C)cc1C(=O)NNC(=O)c1ccc(C(F)(F)F)cc1 | inconclusive: 22.4 µM [inhibitor, single point] |
| OC(C#CCCN1CCCCC1)(c1ccccc1)c1ccccc1 | inconclusive: 22.4 µM [inhibitor, single point] |
| CNc1nc(SC)n(C)c(=O)c1N=O | inconclusive: 20 µM [inhibitor, single point] |
| O=C(Nc1ccc(Cc2ccncc2)cc1)c1cc([N+](=O)[O-])ccc1N1CCOCC1 | inconclusive: 89.1 µM [inhibitor, single point] |
| O=C1CC(c2ccccc2)CC(O)=C1C=NCc1ccccc1Cl (stereo unspecified) | inconclusive: 79.4 µM [inhibitor, single point] |
| C/C(=N\NC(=O)COc1ccccc1)c1cccs1 | inactive |
| CCCCC(=O)NC(c1ccc(OC)c(OC)c1)c1c(O)ccc2ccccc12 (stereo unspecified) | inactive |
| O=C(CSc1nc(Nc2ccccc2)nc(N2CCOCC2)n1)Nc1cccc([N+](=O)[O-])c1 | inactive |
| CCOC(=O)c1nnn2c1nc(N1CCN(c3ccccc3)CC1)c1ccccc12 | inconclusive: 89.1 µM [inhibitor, single point] |
| CC(=O)Nc1ccc(S(=O)(=O)N2C3CCCC2CC(NC(=O)C2CCCCC2)C3)cc1 (stereo unspecified) | inactive |

As a short view, part of the list above:

| SMILES | Potency |
| --- | --- |
| O=C(Nc1ccc(Cc2ccncc2)cc1)c1cc([N+](=O)[O-])ccc1N1CCOCC1 | inconclusive: 89.1 µM [inhibitor, single point] |
| O=C1CC(c2ccccc2)CC(O)=C1C=NCc1ccccc1Cl (stereo unspecified) | inconclusive: 79.4 µM [inhibitor, single point] |
